Assay [1] deals with Aspergillus niger. Nature of the assay: Antifungal activity against Aspergillus niger MTCC 281 at 50 ug/ml after 24 hrs by disc diffusion method. The class given is functional.
Assay [2] deals with Aspergillus niger. Description: Antifungal activity against Aspergillus niger MTCC 281 at 100 ug/ml after 24 hrs by disc diffusion method. The class given is functional.

1 sequence from ChEMBL document CHEMBL3603774, “Novel 5-functionalized-pyrazoles: Synthesis, characterization and pharmacological screening” (Bioorg Med Chem Lett, 2015) can be followed below.

On to NYSTATIN, for which the inhibition zone (IZ) in assay [1] was found to be 10 mm; in assay [2], 20 mm.
